{
  "source": "the supplement of paper PMC4807443",
  "note": "Where a name gives a salt, the structure may show the parent alone. The list shows a part of the results. The numbers are fractions of the control, whatever unit the source prints. Most values lie at the level of the controls, where differences are scatter.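 A lentiviral reporter stably expressed in MIN6 mouse insulinoma beta cells uses Pdx1 and Ins1 promoters to drive separate nucleus-targeted fluorescent proteins; automated imaging with Hoechst nuclear stain counted cells. Possible hits were drugs shifting Ins1 promoter signal more than two median absolute deviations from DMSO controls, with Pdx1 activity roughly normal.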",
  "data": [
    {"system": "MIN6", "test": "% Pdx1+ Ins1-low (RFP-only, immature) cells relative to DMSO control (fold of DMSO control); higher = more immature Pdx1+/Ins1-low cells", "settings": "8.5 µM; 48 h; glucose 5 mM", "values": [
      {"smiles": "NC(=O)CN1CCCC1=O", "note": "[Piracetam]", "% Pdx1+ Ins1-low": 0.711},
      {"smiles": "C=C[C@]12CN(C)[C@@H]3[C@H]4CO[C@H](C[C@H]41)[C@]1(C(=O)Nc4ccccc41)[C@@H]32", "note": "[Gelsemine]", "% Pdx1+ Ins1-low": 1.05},
      {"smiles": "Cc1c2ccncc2c(C)c2c1[nH]c1ccccc12", "note": "[Ellipticine]", "% Pdx1+ Ins1-low": 1.08},
      {"smiles": "CC(=O)OCC(=O)[C@H]1CC[C@H]2[C@@H]3CC[C@H]4C[C@H](O)CC[C@]4(C)[C@H]3C(=O)C[C@]12C", "note": "[Alfadolone acetate]", "% Pdx1+ Ins1-low": 0.996},
      {"smiles": "C[C@H]1C(=O)O[C@@H]2CCN3CC=C(COC(=O)[C@](C)(O)[C@]1(C)O)[C@H]23", "note": "[Monocrotaline]", "% Pdx1+ Ins1-low": 1.06},
      {"smiles": "CO[C@]12C[C@@H](COC(=O)c3cncc(Br)c3)CN(C)[C@@H]1Cc1cn(C)c3cccc2c13", "note": "[Nicergoline]", "% Pdx1+ Ins1-low": 1.11},
      {"smiles": "CC(=O)OCC1=C(C(=O)O)N2C(=O)[C@@H](N)[C@H]2SC1", "note": "[Cephalosporanic acid, 7-amino]", "% Pdx1+ Ins1-low": 1.43},
      {"smiles": "COC1=C[C@@H]2C3=C([C@@H]2C1=O)[C@@H](NC(C)=O)CCc1cc(OC)c(OC)c(OC)c13", "note": "[Lumicolchicine gamma]", "% Pdx1+ Ins1-low": 0.522},
      {"smiles": "C[N+]12CCC(CC1)C(OC(=O)C(O)(c1ccccc1)c1ccccc1)C2", "note": "(stereo not drawn) [Clidinium bromide]", "% Pdx1+ Ins1-low": 0.914},
      {"smiles": "CCN1C[C@]2(COC)CC[C@H](O)[C@@]34C5C[C@@H]6[C@@H](OC)C[C@](O)(C(CC23)C14)C5[C@H]6OC(C)=O", "note": "(stereo partly drawn) [Condelphine]", "% Pdx1+ Ins1-low": 0.946},
      {"smiles": "CC[C@H]1CN2CCc3cc(OC)c(OC)cc3[C@@H]2C[C@@H]1C[C@H]1NCCc2cc(OC)c(OC)cc21", "note": "[Emetine dihydrochloride]", "% Pdx1+ Ins1-low": 1.44},
      {"smiles": "COc1cc([C@@H]2c3cc4c(cc3[C@H](O)[C@H]3COC(=O)[C@H]23)OCO4)cc(OC)c1OC", "note": "[Podophyllotoxin]", "% Pdx1+ Ins1-low": 1.02},
      {"smiles": "CCNC1(c2cccs2)CCCCC1=O", "note": "(stereo not drawn) [Tiletamine hydrochloride]", "% Pdx1+ Ins1-low": 0.707},
      {"smiles": "CCC1(c2cccc(O)c2)CCCCN(C)C1", "note": "(stereo not drawn) [Meptazinol hydrochloride]", "% Pdx1+ Ins1-low": 1.31},
      {"smiles": "C[C@@H]1CC[C@H]2[C@@H](C)C(=O)O[C@@H]3O[C@@]4(C)CC[C@@H]1[C@]32OO4", "note": "[Artemisinin]", "% Pdx1+ Ins1-low": 1.08},
      {"smiles": "CC[C@H]1[C@@H]2C[C@H]3[C@@H]4N(C)c5ccccc5[C@]45C[C@@H]([C@@H]2[C@H]5O)N3[C@@H]1O", "note": "[Ajmaline]", "% Pdx1+ Ins1-low": 0.905},
      {"smiles": "CS(=N)(=O)CC[C@H](N)C(=O)O", "note": "(stereo partly drawn) [Methionine sulfoximine (L)]", "% Pdx1+ Ins1-low": 1.17},
      {"smiles": "COc1ccc(C[C@H]2NC[C@H](O)[C@H]2OC(C)=O)cc1", "note": "[Anisomycin]", "% Pdx1+ Ins1-low": 1.23},
      {"smiles": "CN1[C@@H](C[C@@H](O)c2ccccc2)CCC[C@H]1C[C@H](O)c1ccccc1", "note": "[Lobelanidine hydrochloride]", "% Pdx1+ Ins1-low": 0.952},
      {"smiles": "COc1ccc2c(c1)[nH]c1c(C)nccc12", "note": "[Harmine hydrochloride]", "% Pdx1+ Ins1-low": 1.31},
      {"smiles": "NCCc1c[nH]c2ccc(O)cc12", "note": "[Serotonin hydrochloride]", "% Pdx1+ Ins1-low": 0.637},
      {"smiles": "COc1ccc(Cc2nccc3cc(OC)c(OC)cc23)cc1OC", "note": "[Papaverine hydrochloride]", "% Pdx1+ Ins1-low": 0.861},
      {"smiles": "CCC1(CC)C(=O)C=CNC1=O", "note": "[Pyrithyldione]", "% Pdx1+ Ins1-low": 1.31},
      {"smiles": "C[C@@H]1NCCc2cc(O)c(O)cc21", "note": "[Salsolinol hydrobromide]", "% Pdx1+ Ins1-low": 1.34},
      {"smiles": "CC(C)(C)NCC(O)c1cc(Cl)c(N)c(Cl)c1", "note": "(stereo not drawn) [Clenbuterol hydrochloride]", "% Pdx1+ Ins1-low": 1.13},
      {"smiles": "Fc1ccc(C(OCCN2CCN(CCCc3ccccc3)CC2)c2ccc(F)cc2)cc1", "% Pdx1+ Ins1-low": 0.735},
      {"smiles": "COC(=O)C1=CCCN(C)C1", "note": "[Arecoline hydrobromide]", "% Pdx1+ Ins1-low": 0.785},
      {"smiles": "CN1C[C@H](CO)C=C2c3cccc4[nH]cc(c34)C[C@H]21", "note": "[Lysergol]", "% Pdx1+ Ins1-low": 0.941},
      {"smiles": "CC(=O)O[C@H]1C[C@H](O[C@H]2[C@@H](O)C[C@H](O[C@H]3[C@@H](O)C[C@H](O[C@H]4CC[C@@]5(C)[C@H](CC[C@@H]6[C@@H]5C[C@@H](O)[C@]5(C)[C@@H](C7=CC(=O)OC7)CC[C@]65O)C4)O[C@@H]3C)O[C@@H]2C)O[C@H](C)[C@H]1O[C@@H]1O[C@H](CO)[C@@H](O)[C@H](O)[C@H]1O", "note": "[Lanatoside C]", "% Pdx1+ Ins1-low": 1},
      {"smiles": "COc1ccc(CCN2CCC(Nc3nc4ccccc4n3Cc3ccc(F)cc3)CC2)cc1", "note": "[Astemizole]", "% Pdx1+ Ins1-low": 0.724},
      {"smiles": "C/C=C1\\C[C@@H](C)[C@](O)(CO)C(=O)OCC2=CCN3CC[C@@H](OC1=O)[C@@H]23", "note": "[Retrorsine]", "% Pdx1+ Ins1-low": 1.1},
      {"smiles": "CC1=C2[C@H]3OC(=O)[C@@H](C)[C@@H]3CC[C@@]2(C)C=CC1=O", "note": "[alpha-Santonin]", "% Pdx1+ Ins1-low": 0.594},
      {"smiles": "C[C@]12N[C@H](Cc3ccccc31)c1ccccc12", "note": "[Dizocilpine maleate]", "% Pdx1+ Ins1-low": 0.845},
      {"smiles": "C[N+]1([O-])[C@@H]2C[C@@H](OC(=O)[C@H](CO)c3ccccc3)C[C@H]1[C@@H]1O[C@@H]12", "note": "(stereo partly drawn) [Scopolamin-N-oxide hydrobromide]", "% Pdx1+ Ins1-low": 1.33},
      {"smiles": "O[C@@H]1CCCC[C@H]1N1CCC(c2ccccc2)CC1", "note": "[L(-)-vesamicol hydrochloride]", "% Pdx1+ Ins1-low": 1.13},
      {"smiles": "c1cncc(C2=NCCC2)c1", "note": "[Myosmine]", "% Pdx1+ Ins1-low": 1.01},
      {"smiles": "Cc1nccc2c1[nH]c1ccccc12", "note": "[Harmane hydrochloride]", "% Pdx1+ Ins1-low": 1.14},
      {"smiles": "CCN1C[C@]2(COC)[C@H](O)C[C@H](OC)[C@@]34[C@@H]5C[C@@]6(O)[C@H](OC(=O)c7ccccc7)[C@@H]5[C@@](OC(C)=O)([C@@H]([C@H](OC)[C@H]23)[C@@H]14)[C@@H](O)[C@@H]6OC", "note": "[Aconitine]", "% Pdx1+ Ins1-low": 0.703},
      {"smiles": "O=[N+]([O-])c1cc([As](=O)(O)O)ccc1O", "note": "[Roxarsone]", "% Pdx1+ Ins1-low": 0.822},
      {"smiles": "CCC1(c2ccc(N)cc2)CCC(=O)NC1=O", "note": "(stereo not drawn) [Glutethimide, para-amino]", "% Pdx1+ Ins1-low": 0.557},
      {"smiles": "CC[C@@]1([C@@H]2O[C@@H]([C@H]3O[C@@](O)(CO)[C@H](C)C[C@@H]3C)C[C@@H]2C)CC[C@H]([C@]2(C)CC[C@]3(C[C@H](O)[C@@H](C)[C@@H]([C@@H](C)[C@@H](OC)[C@H](C)C(=O)O)O3)O2)O1", "note": "[Monensin sodium salt]", "% Pdx1+ Ins1-low": 0.997},
      {"smiles": "CN(C)C(=O)Oc1cc(OC(=O)N(C)C)cc(C(O)CNC(C)(C)C)c1", "note": "(stereo not drawn) [Bambuterol hydrochloride]", "% Pdx1+ Ins1-low": 1.43},
      {"smiles": "CCn1cc(C(=O)O)c(=O)c2cc3c(cc21)OCO3", "note": "[Oxolinic acid]", "% Pdx1+ Ins1-low": 0.911}
    ]}
  ]
}
